These are yes or no findings as the source states them, for the method shown. Some binding calls cover weakened binding; strength is not graded here.
T1: protein having an Fc region and a His-tag added to the N-terminus of SEQ ID NO: 1
T1 sequence: RRMMRTKMRMRRM


Assays:
[1] = biological target: T1, protein having an Fc region and a His-tag added to the N-terminus of SEQ ID NO: 1; assay: BLItz biolayer interferometry (Table 14)
[2] = biological target: cleaved Del 52 type mutant CALR with a FLAG-tag, secreted from UT-7/TPO cells (UniProt P27797); assay: immunoblot of culture supernatant
[3] = biological target: cleaved Ins 5 type mutant CALR with a FLAG-tag, secreted from UT-7/TPO cells (UniProt P27797); assay: immunoblot of culture supernatant
[4] = biological target: full-length Del 52 type mutant CALR with a FLAG-tag added downstream of the N-terminal signal sequence, secreted from UT-7/TPO cells (UniProt P27797); assay: immunoblot of culture supernatant
[5] = biological target: full-length Ins 5 type mutant CALR with a FLAG-tag added downstream of the N-terminal signal sequence, secreted from UT-7/TPO cells (UniProt P27797); assay: immunoblot of culture supernatant
[6] = biological target: cleaved Del 52 type mutant CALR with a FLAG-tag, secreted from UT-7/TPO cells (UniProt P27797); assay: immunoblot of proteins secreted from UT-7/TPO cells
[7] = biological target: cleaved Ins 5 type mutant CALR with a FLAG-tag, secreted from UT-7/TPO cells (UniProt P27797); assay: as above
[8] = biological target: full-length Del 52 type mutant CALR with a FLAG-tag added downstream of the N-terminal signal sequence, secreted from UT-7/TPO cells (UniProt P27797); assay: as above
[9] = biological target: full-length Ins 5 type mutant CALR with a FLAG-tag added downstream of the N-terminal signal sequence, secreted from UT-7/TPO cells (UniProt P27797); assay: as above
[10] = biological target: cleaved Ins 5 type mutant CALR with a FLAG-tag, secreted from UT-7/TPO cells (UniProt P27797); assay: immunoblot (SDS-PAGE, reducing) of culture supernatant of UT-7/TPO cells expressing FLAG-tagged Ins 5 mutant CALR
[11] = biological target: full-length Ins 5 type mutant CALR with a FLAG-tag added downstream of the N-terminal signal sequence, secreted from UT-7/TPO cells (UniProt P27797); assay: as above
[12] = biological target: cleaved Del 52 type mutant CALR with a FLAG-tag, secreted from UT-7/TPO cells (UniProt P27797); assay: immunoblot (SDS-PAGE, reducing) of culture supernatant of UT-7/TPO cells expressing FLAG-tagged Del 52 mutant CALR
[13] = biological target: full-length Del 52 type mutant CALR with a FLAG-tag added downstream of the N-terminal signal sequence, secreted from UT-7/TPO cells (UniProt P27797); assay: as above
[14] = biological target: Ins 5 type mutant CALR protein on UT-7/TPO CALR Ins 5 cells (UniProt P27797); assay: flow cytometry on UT-7/TPO CALR Ins 5 cells, antibody 5 ug/mL
[15] = biological target: Del 52 type mutant CALR protein on UT-7/TPO CALR Del 52 cells (UniProt P27797); assay: flow cytometry on UT-7/TPO CALR Del 52 cells, antibody 5 ug/mL
[16] = biological target: peptide having cysteine added to the N-terminus of the amino acid sequence (…) contained in SEQ ID NO: 1; assay: SPR (Biacore T200), antibody immobilised, peptide 1.25 to 20 nM (FIG. 5)
[17] = biological target: peptide having cysteine added to the N-terminus of the amino acid sequence (…) contained in SEQ ID NO: 1; assay: SPR (Biacore T200), antibody immobilised by amine coupling (200 RU), peptide injected at 1.25, 2.5, 5, 10 and 20 nM
[18] = biological target: Ins 5 type mutant CALR protein on UT-7/TPO CALR Ins 5 cells (UniProt P27797); assay: flow cytometry on UT-7/TPO CALR Ins 5 cells, antibody 5 ug/mL, anti-human Fc secondary antibody; on UT-7/TPO vec cells (panel a) the sample lies on the control [b]
[19] = biological target: Del 52 type mutant CALR protein on UT-7/TPO CALR Del 52 cells (UniProt P27797); assay: flow cytometry on UT-7/TPO CALR Del 52 cells, antibody 5 ug/mL, anti-human Fc secondary antibody; on UT-7/TPO vec cells (panel a) the sample lies on the control [c]
[20] = biological target: T1, protein having an Fc region and a His-tag added to the N-terminus of SEQ ID NO: 1; assay: BLItz biolayer interferometry (Tables 16-1 to 16-2)

Binder	binding [2]	binding [3]	binding [4]	binding [5]	binding [6]	binding [7]	binding [8]	binding [9]	binding [10]	binding [12]	further results
Antibody 27 (bispecific antibody) heavy: QVQLQQSGAELVKPGSSVKISCKASGYTFTRNFIHWIKQQPGNGLEWIGWIFPGDGDTEYNQKFNGKATLTADKSSSTAYMQLSSLTSEDSAVYFCARGNYNYEYFDYWGQGVMVTVSSASTKGPSVFPLAPSSKSTSGGTAALGCLVKDYFPEPVTVSWNSGALTSGVHTFPAVLQSSGLYSLSSVVTVPSSSLGTQTYICNVNHKPSNTKVDKRVEPKSCGGGGSQVQLVQSGGGVVQPGRSLRLSCKASGYTFTRYTMHWVRQAPGKGLEWIGYINPSRGYTNYNQKVKDRFTISRDNSKNTAFLQMDSLRPEDTGVYFCARYYDDHYSLDYWGQGTPVTVSSGGGGSGGGGSGGGGSDIQMTQSPSSLSASVGDRVTITCSASSSVSYMNWYQQTPGKAPKRWIYDTSKLASGVPSRFSGSGSGTDYTFTISSLQPEDIATYYCQQWSSNPFTFGQGTKLQITRHHHHHH light: QVQLVQSGGGVVQPGRSLRLSCKASGYTFTRYTMHWVRQAPGKGLEWIGYINPSRGYTNYNQKVKDRFTISRDNSKNTAFLQMDSLRPEDTGVYFCARYYDDHYSLDYWGQGTPVTVSSGGGGSGGGGSGGGGSDIQMTQSPSSLSASVGDRVTITCSASSSVSYMNWYQQTPGKAPKRWIYDTSKLASGVPSRFSGSGSGTDYTFTISSLQPEDIATYYCQQWSSNPFTFGQGTKLQITRGGGGSDIQMTQSPASLSASLGETVSIECLASEDIYSYLAWYQQKPGKSPQLLIFAANRLQDGVPSRFSGSGSGTQFSLKISGMQPEDEGDYFCLQGSKFPYTFGPGTKLELNRTVAAPSVFIFPPSDEQLKSGTASVVCLLNNFYPREAKVQWKVDNALQSGNSQESVTEQDSKDSTYSLSSTLTLSKADYEKHKVYACEVTHQGLSSPVTKSFNRGEC											binding [1]: binds
anti-cleaved mutant CALR-CD3 bispecific antibody made using a VH chain of SEQ ID NO: 2, a VL chain of SEQ ID NO: 3, a VH chain of SEQ ID NO: 8, and a VL chain … (bispecific antibody, V domains shown) VH 1: QVQLQQSGAELVKPGSSVKISCKASGYTFTRNFIHWIKQQPGNGLEWIGWIFPGDGDTEYNQKFNGKATLTADKSSSTAYMQLSSLTSEDSAVYFCARGNYNYEYFDYWGQGVMVTVSS VL 1: DIQMTQSPASLSASLGETVSIECLASEDIYSYLAWYQQKPGKSPQLLIFAANRLQDGVPSRFSGSGSGTQFSLKISGMQPEDEGDYFCLQGSKFPYTFGPGTKLELN VH 2: QVQLVQSGGGVVQPGRSLRLSCKASGYTFTRYTMHWVRQAPGKGLEWIGYINPSRGYTNYNQKVKDRFTISRDNSKNTAFLQMDSLRPEDTGVYFCARYYDDHYSLDYWGQGTPVTVSS VL 2: DIQMTQSPSSLSASVGDRVTITCSASSSVSYMNWYQQTPGKAPKRWIYDTSKLASGVPSRFSGSGSGTDYTFTISSLQPEDIATYYCQQWSSNPFTFGQGTKLQITR											binding [14]: binds; binding [15]: binds; binding [16]: binds; binding [17]: binds; binding [18]: binds; binding [19]: binds
Antibody 106 (bispecific antibody) chain 1: QVQLVQSGAEVKKPGSSVKVSCKASGYTFTRNFIHWIRQAPGQGLEWIGWIFPGDADTEYNQKFSGRATITADKSTSTAYMELSSLRSEDTAVYYCARGNYNYEYFDYWGQGTMVTVSSASTKGPSVFPLAPSSKSTSGGTAALGCLVKDYFPEPVTVSWNSGALTSGVHTFPAVLQSSGLYSLSSVVTVPSSSLGTQTYICNVNHKPSNTKVDKRVEPKSCGGGGSQVQLVQSGGGVVQPGRSLRLSCKASGYTFTRYTMHWVRQAPGKGLEWIGYINPSRGYTNYNQKVKDRFTISRDNSKNTAFLQMDSLRPEDTGVYFCARYYDDHYSLDYWGQGTPVTVSSGGGGSGGGGSGGGGSDIQMTQSPSSLSASVGDRVTITCSASSSVSYMNWYQQTPGKAPKRWIYDTSKLASGVPSRFSGSGSGTDYTFTISSLQPEDIATYYCQQWSSNPFTFGQGTKLQITRHHHHHH chain 2: DIQMTQSPSSLSASVGDRVTITCLASEDIYSYLAWYQQKPGKAPKLLIFAANRLQDGVPSRFSGSGSGTDFTLTISSLQPEDFATYYCLQGSKFPYTFGPGTKVDIKRTVAAPSVFIFPPSDEQLKSGTASVVCLLNNFYPREAKVQWKVDNALQSGNSQESVTEQDSKDSTYSLSSTLTLSKADYEKHKVYACEVTHQGLSSPVTKSFNRGEC											binding [20]: binds

Further lines, with some results ahead:

binding [2]	binding [3]	binding [4]	binding [5]	binding [6]	binding [7]	binding [8]	binding [9]	binding [10]	binding [12]	Binder	further results
binds	binds	binds	binds	binds	binds	binds	binds	binds	binds	clone B3 antibody (antibody, V domains shown) VH: QVQLQQSGAELVKPGSSVKISCKASGYTFTRNFIHWIKQQPGNGLEWIGWIFPGDGDTEYNQKFNGKATLTADKSSSTAYMQLSSLTSEDSAVYFCARGNYNYEYFDYWGQGVMVTVSS VL: DIQMTQSPASLSASLGETVSIECLASEDIYSYLAWYQQKPGKSPQLLIFAANRLQDGVPSRFSGSGSGTQFSLKISGMQPEDEGDYFCLQGSKFPYTFGPGTKLELN	binding [11]: binds; binding [13]: binds
binds	binds	binds	binds	binds	binds	binds	binds	binds	binds	clone C6 antibody (antibody, V domains shown) VH: QVQLQQSGAELVKPGSSVKISCKASGYTFTSYFVHWIKQQPGDGLEWIGWIYPGDGDTEYNHKFNGKSTLTADRSSSTAYMQLSSLTSEDSAVYFCARGNYYDGREVMDAWGQGASVTVSS VL: DVVLTQTPPTLSATIGQSVSISCRSSQSLLDSDGETYLNWLLQRPGQSPQLLIYSVSNLESGVPNRFSGSGSETDFTLKISGMEAEDLGVYYCMQATHGPYTFGAGTKLELK	
binds	binds	binds	binds	binds	binds	binds	binds	binds	binds	clone G1 antibody (antibody, V domains shown) VH: QVQLQQSGAELVKPGSSVKISCKASGYTFTSYFVHWIKQQPGDGLEWIGWIYPGDGDTEYNQKFNGKATLTADRSSSTAYMQLSSLTSEDSAVYFCARGNYYDGREVMDAWGQGASVTVSS VL: DVVLTQTPPTLSATIGQSVSISCRSSQSLLDSDGETYLNWLLQRPGQCPQLLIYSVSNLESGVPNRFSGSGSETDFTLKISGVEAEDLGVYYCMQGTHGPYTFGAGTKLELK	
